In all, about 390,000 compounds went through this assay and about 4,000 (1%) were called active. The shares of active, inactive and inconclusive entries below differ from those in the screen. Calls come from the whole dose curve; as a rule, active = well fitted inhibition curve with a large enough effect; inconclusive = small, poorly fitted or top-dose-only effect, or another doubt; inactive = no such curve, though single readings can be large or run the other way. Where the call is inconclusive, the potency comes from a doubtful curve fit.
Target: DNA polymerase iota (Homo sapiens) (UniProt Q9UNA4)
Assay: qHTS for Inhibitors of Polymerase Iota
Details: Pol iota fluorescent replication assay, 10 min; series mostly up to 115 µM
How it was run: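 Fluorescent replication assay read twice, at 0 min and 10 min after adding 50 nM (final) substrate. Enzyme (10 nM) and compounds were first incubated 15 min at room temperature; enzyme-free buffer wells were negative controls.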
Potency is the fitted concentration of half-maximal effect.

Amino acid sequences for entries named in this document (tags omitted). A change or cut given only in a name is not applied to a line headed by its entry.
UniProt Q9UNA4: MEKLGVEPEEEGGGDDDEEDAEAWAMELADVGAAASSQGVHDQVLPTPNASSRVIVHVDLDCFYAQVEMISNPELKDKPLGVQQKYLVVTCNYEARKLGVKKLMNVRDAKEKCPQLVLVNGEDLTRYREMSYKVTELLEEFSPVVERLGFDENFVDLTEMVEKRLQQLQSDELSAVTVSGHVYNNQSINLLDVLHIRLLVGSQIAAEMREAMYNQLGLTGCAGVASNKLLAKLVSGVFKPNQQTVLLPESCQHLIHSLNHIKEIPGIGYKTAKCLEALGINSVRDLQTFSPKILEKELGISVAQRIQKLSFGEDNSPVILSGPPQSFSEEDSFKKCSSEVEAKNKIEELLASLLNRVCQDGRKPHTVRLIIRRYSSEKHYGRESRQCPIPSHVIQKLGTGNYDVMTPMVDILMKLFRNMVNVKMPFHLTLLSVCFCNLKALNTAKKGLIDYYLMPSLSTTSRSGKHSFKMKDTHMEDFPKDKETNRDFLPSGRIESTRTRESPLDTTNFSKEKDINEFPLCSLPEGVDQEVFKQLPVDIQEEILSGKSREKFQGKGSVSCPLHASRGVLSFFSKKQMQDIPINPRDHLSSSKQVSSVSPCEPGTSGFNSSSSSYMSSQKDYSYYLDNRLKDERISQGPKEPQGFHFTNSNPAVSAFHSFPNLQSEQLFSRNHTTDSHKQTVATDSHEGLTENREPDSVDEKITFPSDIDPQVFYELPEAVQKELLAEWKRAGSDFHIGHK

SMILES | Potency
O=c1c2sc3ccccc3c2n(Cc2cccc(C(F)(F)F)c2)c(=O)n1Cc1ccc(F)cc1 | inactive
Cc1ccc(NC(=O)COC(=O)CN2CSCC2=O)cc1C | inconclusive: 25.1 µM [inhibitor, single point]
COc1ccc2oc(-c3cccc(NC(=O)c4sc5c([N+](=O)[O-])cccc5c4Cl)c3)nc2c1 | inconclusive: 2.82 µM [inhibitor, full curve, poor fit]
CCCn1c(CCC(=O)Nc2ccccc2OC)nc2cccnc21 | inconclusive: 89.1 µM [inhibitor, single point]
O=C(CCC(=O)Nc1ccccc1)N/N=C/C=C/c1ccccc1 | inconclusive: 89.1 µM [inhibitor, single point]
Cc1nc(-c2ccc(S(=O)(=O)Nc3ccc(Br)cc3Cl)s2)cs1 | inconclusive: 28.2 µM [inhibitor, partial curve, poor fit]
CCO/C=C1/C(=O)N(Cc2ccccc2)C(=O)c2ccccc21 | inconclusive: 28.2 µM [inhibitor, full curve]
COc1ccccc1NC(=S)c1ccccc1 | inconclusive: 89.1 µM [inhibitor, single point]
NC(=S)N=Nc1ccc(NN=C(N)N)cc1 | inconclusive: 11.2 µM [inhibitor, partial curve, poor fit]
COc1ccc(OC)c(NC(=O)C2CC(=O)N(CCc3ccc(F)cc3)C2)c1 (stereo not given) | inconclusive: 10 µM [inhibitor, full curve]
CCCN(CC(=O)Nc1ccccc1C)C(=O)CSc1ccccc1C | inactive
COc1ccc(-c2noc(CSc3nc(N)cc(=O)[nH]3)n2)cc1OC | inactive
O=C(NCCc1ccc(Cl)cc1)c1ccc2c(c1)OCCO2 | inconclusive: 39.8 µM [inhibitor, single point]
CCOc1ccc2oc(C(=O)N3CCN(c4ccccn4)CC3)c(C)c2c1 | inconclusive: 20 µM [inhibitor, partial curve, poor fit]
CCOc1ccc(OCC)c(NC(=O)CSc2nnc(Cn3cnc4ccccc43)n2C)c1 | inconclusive: 89.1 µM [inhibitor, single point]
COc1ccc(-c2oc3cccnc3c2C#CCO)cc1 | inconclusive: 44.7 µM [inhibitor, single point]
CCC1CN(C(=O)N2CCC(C(=O)NCCc3ccccc3)CC2)c2ccccc2O1 (stereo not given) | inconclusive: 89.1 µM [inhibitor, single point]
CSc1nccn1C(=O)c1ccccc1[N+](=O)[O-] | inconclusive: 0.708 µM [inhibitor, partial curve, poor fit]
COc1ccc2[nH]c(C(=O)O)c(CCC(=O)O)c2c1 | inactive
CCOc1ccc(S(=O)(=O)Nc2cc(Cl)ccc2OC)c2cccnc12 | inconclusive: 3.16 µM [inhibitor, full curve, poor fit]
O=C1C=C(c2ccccc2)CC(c2cccs2)C1n1cnc([N+](=O)[O-])c1 (stereo not given) | inactive
CC(C)Cn1c(N)c(C(=O)COC(=O)c2cc(-c3ccccc3)nc3ccccc23)c(=O)n(C)c1=O | inactive

SMILES | Potency
Cc1ccc2nc(SCCC#N)nc(C)c2c1 | inconclusive: 39.8 µM [inhibitor, single point]
CCOC(=O)CC(NS(=O)(=O)c1ccc(OC)c(OC)c1)c1cccc([N+](=O)[O-])c1 (stereo not given) | inactive
CCc1sc(/C=C(/C#N)C(N)=S)cc1[N+](=O)[O-] | inconclusive: 14.1 µM [inhibitor, full curve, poor fit]
COc1ccc(S(=O)(=O)N2CCCC2C(=O)Nc2nnc(-c3cccnc3)s2)cc1 (stereo not given) | inconclusive: 14.1 µM [inhibitor, full curve, poor fit]
CCOC(=O)[C@H]1[C@H]2COc3cc(OC)ccc3[C@@H]2N2C(=O)N(c3ccc(Cl)cc3)C(=O)[C@@]12C | inconclusive: 44.7 µM [inhibitor, partial curve]
CCOc1ccccc1NC(=O)NC1CC2CCCC(C1)N2Cc1nnnn1CCc1ccccc1 (stereo not given) | inconclusive: 4.47 µM [inhibitor, partial curve, poor fit]
Nc1cc(-c2ccccc2)nn1S(=O)(=O)c1ccc(Br)cc1 | inactive
CC1(C)NC(=O)N(CC(=O)Nc2nc(-c3ccc(F)cc3)cs2)C1=O | inconclusive: 89.1 µM [inhibitor, single point]
CC[C@@H](C)[C@@H]1CN([C@@H](C)CN2CCC[C@H]2CN2C(N)=NC[C@@H]2Cc2ccccc2)C(=N)N1CCCC1CCCC1 | inconclusive: 35.5 µM [inhibitor, partial curve, poor fit]
COC(=O)c1cc(NS(=O)(=O)c2cc(Br)cc3c2N(C(C)=O)CC3)cc(C(=O)OC)c1 | inactive
O=C(Nc1ccc2nc(-c3ccco3)c(-c3ccco3)nc2c1)N1CCCC1 | active: 3.16 µM
Nc1c(C=C2C=CC(=O)C=C2)c(=O)nc2sc(CC(=O)N3CCCC3)nn12 | inconclusive: 56.2 µM [inhibitor, partial curve, poor fit]
Cc1nn(-c2ccccc2)c(OC(=O)C(C)(C)C)c1Sc1ccccc1 | inconclusive: 31.6 µM [inhibitor, single point]
O=C1NC(=O)/C(=C\c2ccc(N3CCOCC3)o2)N1 | inconclusive: 28.2 µM [inhibitor, partial curve, poor fit]
Nc1n[nH]c(-c2ccccc2)c1-c1ccccc1 | inconclusive: 89.1 µM [inhibitor, partial curve, poor fit]
Cc1ccc2nc(N(CCCN(C)C)C(=O)c3cc(-c4cccs4)nc4ccccc34)sc2c1 | inconclusive: 12.6 µM [inhibitor, full curve, poor fit]
O=C(c1cnsn1)N1CCCC(Nc2ccc(F)c(F)c2)C1 (stereo not given) | inactive
Nc1cc(-c2ccc(Br)cc2)nn1S(=O)(=O)c1ccccc1 | inconclusive: 89.1 µM [inhibitor, single point]
COc1cccc(C2=CC(c3ccc(OC)c(OC)c3)NC(=S)N2)c1 (stereo not given) | inconclusive: 12.6 µM [inhibitor, partial curve, poor fit]
O=S(=O)(NC1CCCCCC1)c1ccc(Br)s1 | inconclusive: 39.8 µM [inhibitor, single point]
CN1C(=O)C2(NC(=O)c3ccccc3N2C)c2ccccc21 (stereo not given) | inactive
Cc1nnc(NC(=O)C(=O)c2cc(C)n(-c3ccc(C)c(C)c3)c2C)s1 | inactive

Quoted from the listing:
For Potency, CCOc1ccccc1NC(=O)NC1CC2CCCC(C1)N2Cc1nnnn1CCc1ccccc1 (stereo not given) is listed with inconclusive: 4.47 µM [inhibitor, partial curve, poor fit]
For Potency, CCOC(=O)CC(NS(=O)(=O)c1ccc(OC)c(OC)c1)c1cccc([N+](=O)[O-])c1 (stereo not given) is listed with inactive
For Potency, CCOc1ccc2oc(C(=O)N3CCN(c4ccccn4)CC3)c(C)c2c1 is listed with inconclusive: 20 µM [inhibitor, partial curve, poor fit]

The results go on.

SMILES | Potency
COc1ccccc1Oc1coc2c(CN(C)C)c(O)ccc2c1=O | inactive
Cc1cccc(NC(=S)NNc2cccc(Cl)c2)c1 | inconclusive: 25.1 µM [inhibitor, partial curve, poor fit]
Cc1ccccc1N=C1NC(=O)/C(=C/c2cccn2-c2cccc(C(=O)O)c2)S1 | active: 20 µM
C[C@@]12C(=O)Nc3ccc(F)cc3C(=O)N1[C@H]1c3cc(Br)ccc3OC[C@@H]1[C@@H]2c1ccccc1 | inconclusive: 25.1 µM [inhibitor, partial curve, poor fit]
COCCNC(=O)C(c1ccc(OC)cc1)N(Cc1ccco1)C(=O)CCC(=O)Nc1ccccn1 (stereo not given) | inactive
COC(=O)CN(c1ccc(OC)cc1)S(=O)(=O)c1c(C)noc1C | inconclusive: 63.1 µM [inhibitor, partial curve, poor fit]
Oc1ccc(-c2nc(=S)[nH][nH]2)cc1 | inactive
S=c1[nH]c2ccccc2c2ccccc12 | inconclusive: 28.2 µM [inhibitor, single point]
CCN(CC)S(=O)(=O)c1cccc(C(=O)N[C@H](C(=O)NCc2ccc(Cl)cc2)C(C)C)c1 | inconclusive: 35.5 µM [inhibitor, single point]
CC(C)C[C@H](NC(=O)c1nc[nH]c1C(=O)NC1CCNCC1)C(=O)OC(C)(C)C | inconclusive: 35.5 µM [inhibitor, single point]
COC(=O)CCC(=O)OC1(C)C(=O)C=C2C=C(C3CC3)N(CCc3c[nH]c4ccccc34)C=C2C1=O (stereo not given) | inconclusive: 35.5 µM [inhibitor, partial curve, poor fit]
CCCCC(CC)CN=C(N)NC(N)=NCCCCCCN=C(N)NC(N)=NCC(CC)CCCC (stereo not given) | inconclusive: 8.91 µM [inhibitor, full curve, poor fit]
O=C(CN(c1ccc(Cl)c(Cl)c1)S(=O)(=O)c1ccccc1)N1CCc2ccccc2C1 | inconclusive: 39.8 µM [inhibitor, single point]
Cn1c(=O)c2nc(SCC(=O)Nc3ccc(Cl)c(Cl)c3)n(C)c2n(C)c1=O | inactive
COc1ccc(N(C)C(=O)c2cc(S(=O)(=O)N3CCc4ccccc43)cn2C)c(OC)c1 | inconclusive: 89.1 µM [inhibitor, partial curve, poor fit]
Cc1cccc(-c2nc(C(N)=O)c3c(n2)n(-c2ccc4c(c2)OCO4)c(=O)n3C)c1 | inactive
O=C(CSc1nc2cc(S(=O)(=O)N3CCOCC3)ccc2o1)NC1CCCc2ccccc21 (stereo not given) | inconclusive: 14.1 µM [inhibitor, partial curve]
COc1ccc(CNC(=O)Cn2nc(C)c3c(C)n(-c4ccccc4)nc3c2=O)cc1OC | inconclusive: 100 µM [inhibitor, single point]
O=C(Nc1ccc(Cl)cc1)c1cc2c(-c3ccccc3)nn(-c3ccccc3)c2s1 | inactive
O=Cc1cn(-c2ccccc2)nc1-c1cc2ccccc2oc1=O | inconclusive: 7.08 µM [inhibitor, full curve, poor fit]
O=C(COC(=O)c1ncc(Cl)c(Cl)c1Cl)Nc1ccc(Cl)cn1 | inconclusive: 22.4 µM [inhibitor, partial curve]

— PubChem BioAssay AID588590 (National Center for Advancing Translational Sciences (NCATS), 2011)
